# The list shows a part of the results.
# Biological target: T1, OsSMF1 (Oryza sativa, UniProt Q6ZLB0 1-436)
# T1 sequence: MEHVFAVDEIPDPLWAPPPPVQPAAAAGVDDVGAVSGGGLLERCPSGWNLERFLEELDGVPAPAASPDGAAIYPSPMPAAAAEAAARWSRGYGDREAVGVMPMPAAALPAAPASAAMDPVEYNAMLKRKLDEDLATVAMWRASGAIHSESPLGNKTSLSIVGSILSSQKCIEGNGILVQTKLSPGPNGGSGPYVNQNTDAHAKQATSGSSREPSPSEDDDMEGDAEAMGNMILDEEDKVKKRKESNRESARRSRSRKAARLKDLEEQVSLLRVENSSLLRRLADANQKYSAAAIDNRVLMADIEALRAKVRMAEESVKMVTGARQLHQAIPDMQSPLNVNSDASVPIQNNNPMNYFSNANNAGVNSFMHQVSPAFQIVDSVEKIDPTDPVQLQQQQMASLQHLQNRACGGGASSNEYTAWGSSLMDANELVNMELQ
# Experiment: protein-binding microarray (RPBM); PBS, 2% BSA, 51.3 ng/ul salmon testes DNA, 50 uM zinc acetate, 200 nM TF, 25 C, 1 h; high values mean tight binding
# Details: protein: recombinant; tags: N-terminal polyhistidine and DsRed monomer fusion (pET32a); chain copies: 2; label: CyDye5-dUTP incorporated in the synthesized complementary strand; 3' TTTTT single-stranded linker to array surface; dsDNA, one strand shown
# Outline: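 Transcription factors were made in E. coli BL21-CodonPlus as N-terminal fusions to a polyhistidine tag and DsRed, then purified on Ni–NTA. After primer extension with Cy5-dUTP and blocking with 2% BSA, a custom Agilent array was exposed for 1 h at 25 °C to 200 nM protein in PBS, 2% BSA, salmon testes DNA and 50 µM zinc acetate. Washed arrays were scanned on an Axon 4000B, and the binding signal is per-feature fluorescence intensity in arbitrary units.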
row,Sequence,binding signal
1,GCCCAAATATTGAGTTGGGCCCATAATTTTCGGCCCACATCGGAGTCACCTAGTGCAG,15600 fluorescence intensity (a.u.)
2,CCAGTGACTCGTCCGCCTCCACACATTACAGCTACCACGCCGGAGTCACCTAGTGCAG,4040 fluorescence intensity (a.u.)
3,ATCCGTACTCCCGTATATGTGGCAACATCTCCATCGTTTTCGGAGTCACCTAGTGCAG,4500 fluorescence intensity (a.u.)
4,CTTTGTTACCTAACTACAGTTGTTATATCGTGACACATTTCGGAGTCACCTAGTGCAG,5480 fluorescence intensity (a.u.)
5,TTGTGGCATCGCATGGCGTTGGCGTCACCACCCCGCTCTCCGGAGTCACCTAGTGCAG,4900 fluorescence intensity (a.u.)
6,GAGTCCGAGACCGACGCTGACACCGTCCTGCAGCAACCACCGGAGTCACCTAGTGCAG,3540 fluorescence intensity (a.u.)
7,TTATCTTCTCTCTCTTCCACATCATATAAAAGCTGATATGCGGAGTCACCTAGTGCAG,4270 fluorescence intensity (a.u.)
8,CGCGCCGTGGTGAGCGCGTGCGTGGCGTGTGGTGCAGGTGCGGAGTCACCTAGTGCAG,3440 fluorescence intensity (a.u.)
9,CCCTTAGTCTGCAGGTTCCAGAAATGAAGTTTCATGCAGACGGAGTCACCTAGTGCAG,8040 fluorescence intensity (a.u.)
10,CACACACCTCACCACACGCCACGTTGATGCCTCGATAGAACGGAGTCACCTAGTGCAG,3680 fluorescence intensity (a.u.)
11,GAATTCCTATAGCATAGAATGTACACAGGGTGTACCCATTCGGAGTCACCTAGTGCAG,3210 fluorescence intensity (a.u.)
12,CAATGGCCATGAAGAATGTTCGTTGCTGCCACGTTCTGGCCGGAGTCACCTAGTGCAG,4230 fluorescence intensity (a.u.)
13,TATATATATATATATATATATATAATGTTTCATCACCTGTCGGAGTCACCTAGTGCAG,3810 fluorescence intensity (a.u.)
14,ACGCGCGTTTTGTCAACACGTAGGCGAATATACTAGCCGGCGGAGTCACCTAGTGCAG,4880 fluorescence intensity (a.u.)
15,TGCACCCACGTGGCCACGTGTATGTAACGTTAGTGGTGACCGGAGTCACCTAGTGCAG,14900 fluorescence intensity (a.u.)
16,AAAACCTGACTTTGCATCATTAGACGATTTGTCCATTGAACGGAGTCACCTAGTGCAG,3160 fluorescence intensity (a.u.)
17,TTAATGGTGAGTGAGTTTGATGGCTACGTATGTGTGCTATCGGAGTCACCTAGTGCAG,3170 fluorescence intensity (a.u.)
18,AAACACTCGATGACATGTGGGTCCCACCTTTTGATTTAATCGGAGTCACCTAGTGCAG,3230 fluorescence intensity (a.u.)
19,GTTCATTATTGCCGTTTACTAATACCATGTCCACACGGCCCGGAGTCACCTAGTGCAG,10700 fluorescence intensity (a.u.)
20,GGGCCCGCAATTCAATCGATTTGTTGGTCAGCCCATACTGCGGAGTCACCTAGTGCAG,3210 fluorescence intensity (a.u.)
21,CCGACAACACCGAGATCTTCGAGGATGGTGGACGTCACCCCGGAGTCACCTAGTGCAG,3570 fluorescence intensity (a.u.)

row,Sequence,binding signal
1,TGCTGCGAAAGATGCACATCTTTGCATCACCAAGCAGCTCCGGAGTCACCTAGTGCAG,3500 fluorescence intensity (a.u.)
2,GAGAAGATGTATTAACATGTGATATATCGCTCCACAAACACGGAGTCACCTAGTGCAG,3320 fluorescence intensity (a.u.)
3,TAGAAAACGCAACAACTAGCGCACCACGATACACGTGCATCGGAGTCACCTAGTGCAG,3860 fluorescence intensity (a.u.)
4,TTGTTACTCCATATCTTTTGCACAGTCATACTGCAAGAATCGGAGTCACCTAGTGCAG,5350 fluorescence intensity (a.u.)
5,CTAGTATTAGCACCGAATAATGTGTCACTAATTAGAGTAGCGGAGTCACCTAGTGCAG,4640 fluorescence intensity (a.u.)
6,CGGCCACGCATGGTCGCCTGAGTCATCGTCCTTCCACTCTCGGAGTCACCTAGTGCAG,9340 fluorescence intensity (a.u.)
7,AAGTTGCTTTAAAATATCAAATATATCCATTTGTTAAATTCGGAGTCACCTAGTGCAG,32100 fluorescence intensity (a.u.)
8,GTATTGCACAAGTTAATGAATAAATAAGAAGAGTCTTACCCGGAGTCACCTAGTGCAG,28100 fluorescence intensity (a.u.)
9,TAGCTAGGCCACGCGCACGCCACGACGGCCCGCACATATGCGGAGTCACCTAGTGCAG,3880 fluorescence intensity (a.u.)
10,TCTACCTGGCCCCACATGTCATCCACTCGTGCTACGCAGCCGGAGTCACCTAGTGCAG,3440 fluorescence intensity (a.u.)
11,CCGATACCGTATCGCTCGCGTATCCCACGTATCGCCGTATCGGAGTCACCTAGTGCAG,4740 fluorescence intensity (a.u.)
12,CCCAAAGTCAACCACATACGTGCTGTTGTGTAGTCACATTCGGAGTCACCTAGTGCAG,3580 fluorescence intensity (a.u.)
13,TCTCACATGGTCGTATGTAATGCGTAAATTTCATAAAGAACGGAGTCACCTAGTGCAG,19400 fluorescence intensity (a.u.)
14,GGTCGCTGTCGTTGGCGGGTGCGGGGAGGTGGCGGTTACGCGGAGTCACCTAGTGCAG,4820 fluorescence intensity (a.u.)
15,CATGTCAAAGTGCCACGCCAGCGAAACTGCGTTCTAAAACCGGAGTCACCTAGTGCAG,7780 fluorescence intensity (a.u.)
16,ATCGACGATGAAGATGATGACGAGGATATCGTATATATGGCGGAGTCACCTAGTGCAG,4190 fluorescence intensity (a.u.)
17,CCCAACCCAGAGCGGTTTTGTCCAACGTGGCACACGCGTGCGGAGTCACCTAGTGCAG,19600 fluorescence intensity (a.u.)
18,GTCTCGCTCGCGTCGTCGTGGTGAGGGGTGACGCGAGTCACGGAGTCACCTAGTGCAG,3600 fluorescence intensity (a.u.)
19,CTCAAAGCATTATAAAACTTGCTGGCTTTGTCCCCTTCATCGGAGTCACCTAGTGCAG,3250 fluorescence intensity (a.u.)
20,CCCTATTAATGCAACAGCTTCCTGTTTCAGTCTGTACTCTCGGAGTCACCTAGTGCAG,3680 fluorescence intensity (a.u.)
21,CTATTAAACTTGCTCAAAGAGATCAGAGGGGTGGCAATTGCGGAGTCACCTAGTGCAG,3460 fluorescence intensity (a.u.)

# 2 entries drawn at random from those above, as already listed:
row,Sequence,binding signal
8,GTATTGCACAAGTTAATGAATAAATAAGAAGAGTCTTACCCGGAGTCACCTAGTGCAG,28100 fluorescence intensity (a.u.)
14,GGTCGCTGTCGTTGGCGGGTGCGGGGAGGTGGCGGTTACGCGGAGTCACCTAGTGCAG,4820 fluorescence intensity (a.u.)

# Source: PMC7819943, “Rice protein-binding microarrays: a tool to detect cis-acting elements near promoter regions in rice”
